# Source: the supplement of paper PMC8728848
# The list shows a part of the results.
# B1: Langerin K299A/K313A (Homo sapiens), Q9UJ71 (protein)
# chain: STLNAQIPELKSDLEKASALNTKIRALQGSLENMSKLLKRQNDILQVVSQGWKYFKGNFYYFSLIPKTWYSAEQFCVSRNSHLTSVTSESEQEFLYKTAGGLIYWIGLTKAGMEGDWSWVDDTPFNKVQSARFWIPGEPNNAGNNEHCGNIAAPSLQAWNDAPCDATFLFICKRPYVPSEP
# Experiments:
# Test in all cases: glycan array binding signal (z-score within array); higher = stronger binding
# Conditions in all cases: glycan notation: IUPAC condensed, linker removed
# [1] = target: GlcNAc(b1-4)GlcNAc(b1-4)GlcNAc(b1-4)GlcNAc(b1-4)GlcNAc(b1-4)GlcNAc
# Outline: (§1)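 Arrays were curated from the Consortium for Functional Glycomics database, 3228 in total, and kept only where the protein sequence was available. Binding is expressed as a within-array Z-score. This score was averaged across arrays of the same protein sequence at different concentrations or buffers and across linkers, and negative values can be read as non-binding.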
# [2] = target: GlcNAc(b1-4)[GlcNAc(b1-6)]GalNAc
# Outline: as §1
# [3] = target: GlcNAc(b1-6)Gal(b1-4)GlcNAc
# Outline: as §1
# [4] = target: GlcNAc(b1-6)GalNAc
# Outline: as §1
# [5] = target: GlcNAc6S(b1-3)Gal(b1-4)GlcNAc
# Outline: as §1
# [6] = target: Kdn(a2-3)Gal(b1-3)GalNAc
# Outline: as §1
# [7] = target: Kdn(a2-3)Gal(b1-3)GlcNAc
# Outline: as §1
# [8] = target: Kdn(a2-3)Gal(b1-4)Glc
# Outline: as §1
# [9] = target: Kdn(a2-3)Gal(b1-4)GlcNAc
# Outline: as §1
# [10] = target: Kdn(a2-3)Gal(b1-4)[Fuc(a1-3)]GlcNAc
# Outline: as §1
# [11] = target: Kdn(a2-6)Gal(b1-4)GlcNAc
# Outline: as §1
# [12] = target: Man(a1-2)Man(a1-2)Man(a1-3)Man
# Outline: as §1
# [13] = target: Man(a1-2)Man(a1-2)Man(a1-6)[Man(a1-3)]Man
# Outline: as §1
# [14] = target: Man(a1-2)Man(a1-3)Man
# Outline: as §1
# [15] = target: Man(a1-2)Man(a1-3)[Man(a1-2)Man(a1-6)]Man
# Outline: as §1
# [16] = target: Man(a1-2)Man(a1-3)[Man(a1-2)Man(a1-6)]Man(a1-6)[Man(a1-2)Man(a1-2)Man(a1-3)]Man
# Outline: as §1
# [17] = target: Man(a1-2)Man(a1-3)[Man(a1-2)Man(a1-6)]Man(a1-6)[Man(a1-2)Man(a1-2)Man(a1-3)]Man(b1-4)GlcNAc(b1-4)GlcNAc
# Outline: as §1
# [18] = target: Man(a1-2)Man(a1-3)[Man(a1-6)]Man(a1-6)[Man(a1-2)Man(a1-3)]Man(b1-4)GlcNAc(b1-4)GlcNAc
# Outline: as §1
# [19] = target: Man(a1-2)Man(a1-6)[Man(a1-3)]Man(a1-6)[Man(a1-2)Man(a1-2)Man(a1-3)]Man
# Outline: as §1
# [20] = target: Man(a1-2)Man(a1-6)[Man(a1-3)]Man(a1-6)[Man(a1-2)Man(a1-2)Man(a1-3)]Man(b1-4)GlcNAc(b1-4)GlcNAc
# Outline: as §1
# [21] = target: Man(a1-3)[Man(a1-6)]Man
# Outline: as §1
# [22] = target: Man(a1-3)[Man(a1-6)]Man(a1-6)[Man(a1-2)Man(a1-3)]Man(b1-4)GlcNAc(b1-4)GlcNAc
# Outline: as §1
# [23] = target: Man(a1-3)[Man(a1-6)]Man(a1-6)[Man(a1-3)]Man
# Outline: as §1
# [24] = target: Man(a1-3)[Man(a1-6)]Man(a1-6)[Man(a1-3)]Man(b1-4)GlcNAc(b1-4)GlcNAc
# Outline: as §1
# [25] = target: Man(a1-3)[Man(a1-6)]Man(b1-4)GlcNAc(b1-4)GlcNAc
# Outline: as §1
# [26] = target: Man(a1-3)[Man(a1-6)]Man(b1-4)GlcNAc(b1-4)[Fuc(a1-6)]GlcNAc
# Outline: as §1
# [27] = target: Man(a1-6)Man
# Outline: as §1
# [28] = target: Man(b1-4)GlcNAc
# Outline: as §1
# [29] = target: MurNAc(b1-4)GlcNAc
# Outline: as §1
# [30] = target: Neu5Ac(a2-3)Gal
# Outline: as §1
# [31] = target: Neu5Ac(a2-3)Gal(b1-3)GalNAc
# Outline: as §1
# [32] = target: Neu5Ac(a2-3)Gal(b1-3)GalNAc(b1-3)Gal(a1-4)Gal(b1-4)Glc
# Outline: as §1
# [33] = target: Neu5Ac(a2-3)Gal(b1-3)GalNAc(b1-4)[Neu5Ac(a2-3)]Gal(b1-4)Glc
# Outline: as §1
# [34] = target: Neu5Ac(a2-3)Gal(b1-3)GalNAc(b1-4)[Neu5Ac(a2-8)Neu5Ac(a2-3)]Gal(b1-4)Glc
# Outline: as §1
# [35] = target: Neu5Ac(a2-3)Gal(b1-3)GalNAc6S
# Outline: as §1
# [36] = target: Neu5Ac(a2-3)Gal(b1-3)GlcNAc
# Outline: as §1
# [37] = target: Neu5Ac(a2-3)Gal(b1-3)GlcNAc(b1-2)Man
# Outline: as §1
# [38] = target: Neu5Ac(a2-3)Gal(b1-3)GlcNAc(b1-2)Man(a1-3)[GlcNAc(b1-4)][Neu5Ac(a2-3)Gal(b1-3)GlcNAc(b1-2)Man(a1-6)]Man(b1-4)GlcNAc(b1-4)GlcNAc
# Outline: as §1
# [39] = target: Neu5Ac(a2-3)Gal(b1-3)GlcNAc(b1-2)Man(a1-3)[Neu5Ac(a2-3)Gal(b1-3)GlcNAc(b1-2)Man(a1-6)]Man(b1-4)GlcNAc(b1-4)GlcNAc
# Outline: as §1
# [40] = target: Neu5Ac(a2-3)Gal(b1-3)GlcNAc(b1-3)Gal(b1-3)GlcNAc
# Outline: as §1
# [41] = target: Neu5Ac(a2-3)Gal(b1-3)GlcNAc(b1-3)Gal(b1-4)GlcNAc
# Outline: as §1
# [42] = target: Neu5Ac(a2-3)Gal(b1-3)GlcNAc(b1-3)GalNAc
# Outline: as §1
# [43] = target: Neu5Ac(a2-3)Gal(b1-3)GlcNAc(b1-4)Gal(b1-4)Glc
# Outline: as §1
# [44] = target: Neu5Ac(a2-3)Gal(b1-3)GlcNAc(b1-6)GalNAc
# Outline: as §1
# [45] = target: Neu5Ac(a2-3)Gal(b1-3)GlcNAc6S
# Outline: as §1
binder,measurement,setting,value
B1,glycan array binding signal (z-score),[1],-1.14
same,glycan array binding signal (z-score),[2],-1.13
same,glycan array binding signal (z-score),[3],-1.18
same,glycan array binding signal (z-score),[4],-0.107
same,glycan array binding signal (z-score),[5],0.155
same,glycan array binding signal (z-score),[6],2.07
same,glycan array binding signal (z-score),[7],-0.288
same,glycan array binding signal (z-score),[8],0.422
same,glycan array binding signal (z-score),[9],0.831
same,glycan array binding signal (z-score),[10],1.44
same,glycan array binding signal (z-score),[11],0.407
same,glycan array binding signal (z-score),[12],0.605
same,glycan array binding signal (z-score),[13],-0.059
same,glycan array binding signal (z-score),[14],-1.07
same,glycan array binding signal (z-score),[15],-0.254
same,glycan array binding signal (z-score),[16],-0.4
same,glycan array binding signal (z-score),[17],-1.1
same,glycan array binding signal (z-score),[18],-0.565
same,glycan array binding signal (z-score),[19],0.338
same,glycan array binding signal (z-score),[20],0.2
same,glycan array binding signal (z-score),[21],-0.537
same,glycan array binding signal (z-score),[22],-0.191
same,glycan array binding signal (z-score),[23],0.251
same,glycan array binding signal (z-score),[24],-0.582
same,glycan array binding signal (z-score),[25],-0.611
same,glycan array binding signal (z-score),[26],0.391
same,glycan array binding signal (z-score),[27],-0.627
same,glycan array binding signal (z-score),[28],-0.283
same,glycan array binding signal (z-score),[29],-0.05
same,glycan array binding signal (z-score),[30],-0.735
same,glycan array binding signal (z-score),[31],-0.174
same,glycan array binding signal (z-score),[32],-0.646
same,glycan array binding signal (z-score),[33],-0.356
same,glycan array binding signal (z-score),[34],0.052
same,glycan array binding signal (z-score),[35],-0.289
same,glycan array binding signal (z-score),[36],-0.504
same,glycan array binding signal (z-score),[37],1.93
same,glycan array binding signal (z-score),[38],-0.553
same,glycan array binding signal (z-score),[39],0.863
same,glycan array binding signal (z-score),[40],-0.682
same,glycan array binding signal (z-score),[41],-0.666
same,glycan array binding signal (z-score),[42],-0.354
same,glycan array binding signal (z-score),[43],0.213
same,glycan array binding signal (z-score),[44],-0.402
same,glycan array binding signal (z-score),[45],-0.784

# A different layout for some results above:
binder	measurement	setting	value
B1	glycan array binding signal (z-score)	[14]	-1.07
same	glycan array binding signal (z-score)	[15]	-0.254
same	glycan array binding signal (z-score)	[16]	-0.4
same	glycan array binding signal (z-score)	[17]	-1.1
same	glycan array binding signal (z-score)	[18]	-0.565
same	glycan array binding signal (z-score)	[19]	0.338
same	glycan array binding signal (z-score)	[20]	0.2
same	glycan array binding signal (z-score)	[21]	-0.537
